Results deposited as PubChem BioAssay AID1259308 (NCATS, 2017)

- Screen: 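Genes whose loss raises luciferase production in HEK293 cells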 (primary screen)
- Cells: human HEK293 embryonic kidney cells stably expressing firefly luciferase (HEK-CMV-Luc2-Hygro)
- Reagent: single siRNA against human genes, 0.8 pmol siRNA per well
- Timing: 72 h
- Measurement: 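Reporter luminescence and viable-cell signal on separate replicate plates, given as percent of non-targeting control and median/MAD z-scores, plus per-cell luciferase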
- Reading the numbers: total luciferase, z-score: higher = more reporter protein produced
- Active means: 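Active when the median/MAD z-score for overall luciferase is greater than 3; a gene was taken forward for validation with new siRNAs if at least two of its three siRNAs passed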
- Meaning of the calls: active = raised luciferase; inactive = no rise
In all, the deposit lists about 59,000 reagents; this is an unselected part. Of all reagents, about 1,510 (2.6%) got an active call. 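Calls use total luciferase alone and ignore viability, so some active siRNAs may act by altering cell number.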 Reagents against one gene are numbered here. Not all columns of the deposit are shown. Reagent sequences are not shown.

total luciferase, z-score, by gene and reagent
CAPS: #1 -1.77 inactive; #2 -1.95 inactive; #3 -0.24 inactive
ALMS1P1: #1 -1.33 inactive; #2 1.18 inactive; #3 -0.68 inactive
SLC41A1: #1 3 active; #2 0.28 inactive; #3 -0.137 inactive

Records listed so far whose gene name starts with S or s:
total luciferase, z-score, by gene and reagent
SLC41A1: #1 3 active; #2 0.28 inactive; #3 -0.137 inactive

More entries follow:
total luciferase, z-score, by gene and reagent
DNAJC17: #1 -0.00191 inactive; #2 0.291 inactive; #3 -0.639 inactive
CEBPD: #1 -0.378 inactive; #2 -1.32 inactive; #3 -0.104 inactive
SMUG1: #1 0.459 inactive; #2 -0.724 inactive; #3 0.827 inactive
AKTIP: #1 -1.41 inactive; #2 1.7 inactive; #3 -1.47 inactive
GFPT2: #1 -0.614 inactive; #2 0.311 inactive; #3 -0.947 inactive
